Reference: patent US20250129170A1
Substitutions are numbered along the chain they refer to. These are yes or no findings as the source states them, for the method shown. Some entries that bind do so weakly or less than the wild type.

Chains of the proteins cited; added tags and fusions are not shown. Lines headed by an entry give the natural chain unless they say otherwise; changes in a name come on top. Residues count along the entry.
UniProt P19235, residues 25-250: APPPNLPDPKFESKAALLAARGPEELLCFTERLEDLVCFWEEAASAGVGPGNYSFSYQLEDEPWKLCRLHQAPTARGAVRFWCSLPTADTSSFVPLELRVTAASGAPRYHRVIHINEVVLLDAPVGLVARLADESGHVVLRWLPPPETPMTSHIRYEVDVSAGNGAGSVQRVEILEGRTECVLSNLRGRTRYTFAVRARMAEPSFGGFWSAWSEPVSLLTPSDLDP
UniProt P32927, residues 17-443: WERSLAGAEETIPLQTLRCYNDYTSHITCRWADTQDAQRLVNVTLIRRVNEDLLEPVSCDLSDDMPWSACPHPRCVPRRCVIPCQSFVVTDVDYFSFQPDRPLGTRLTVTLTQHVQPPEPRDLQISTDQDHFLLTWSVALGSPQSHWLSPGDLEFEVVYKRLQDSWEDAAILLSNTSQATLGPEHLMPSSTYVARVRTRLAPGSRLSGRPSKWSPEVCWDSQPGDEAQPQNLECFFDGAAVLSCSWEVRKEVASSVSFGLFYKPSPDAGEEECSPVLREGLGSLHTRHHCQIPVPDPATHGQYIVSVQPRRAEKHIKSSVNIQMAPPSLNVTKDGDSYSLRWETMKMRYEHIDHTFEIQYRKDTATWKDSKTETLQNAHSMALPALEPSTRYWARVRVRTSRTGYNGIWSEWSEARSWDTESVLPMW

Key:
[1] = molecular target: recombinant hEPOR-Fc (SinoBiological, Cat #10707-H02H) (human) (UniProt P19235); assay: B cells sorted by flow cytometry on labeled hEPOR-Fc, single cell sequencing
[2] = molecular target: hCD131-Fc (IME021, inhouse) (human) (UniProt P32927); assay: B-cell sorting with fluorescent hCD131-Fc; single-cell sequencing

B1: anti-EPOR antibody clonotype455 (antibody, V domains shown)
VH: EVQLVESGGGLVQPGGSLRLSCAASGFTFSSYWMHWVRQAPGKGLVWVSRINSDGSSTSYADSVKGRFTISRDNAKNTLYLQMNSLRAEDTAVYYCARDEQLVPFDIWGQGTMVTVSS
VL: QSALTQPASVSGSPGQSITISCTGTSSDVGGYNYVSWYQQHPGKAPKLMIYDVSKRPSGVSNRFSGSKSGNTASLTISGLQAEDEADYYCCSYAGSSTLVFGGGTKLTVL
binding [1]: binds

B2: anti-EPOR antibody clonotype457 (antibody, V domains shown)
VH: EVQLVESGGGLVQPGRSLRLSCAASGFTFDDYAMHWVRQAPGKGLEWVSGISWNSGSIGYADSVKGRFTISRDNAKNSLYLQMNSLRAEDTALYYCAKDSGSYYFDYWGQGTLVTVSS
VL: QSALTQPPSASGSPGQSVTISCTGTSSDVGGYNYVSWYQQHPGKAPKLMIYEVSKRPSGVPDRFSGSKSGNTASLTVSGLQAEDEADYYCSSYAGSNNFVVFGGGTKLTVL
binding [1]: binds

B3: anti-EPOR antibody clonotype458 (antibody, V domains shown)
VH: QVQLVESGGGLVKPGGSLRLSCAASGFTFSDYYMSWIRQAPGKGLEWVSYISSSGSTIYYADSVKGRFTISRDNAKNSLYLQMNSLRAEDTAVYYCARDGQLWSFDYWGQGTLVTVSS
VL: QSVLTQPPSVSGAPGQRVTISCTGSSSNIGAGYDVHWYQQLPGTAPKLLIYGNSNRPSGVPDRFSGSKSGTSASLAITGLQAEDEADYYCQSYDSSLSDVVFGGGTKLTVL
binding [1]: binds

B4: anti-EPOR antibody clonotype460 (antibody, V domains shown)
VH: EVQLVESGGGLVQPGGSLRLSCAASGFTFSSYWMSWVRQAPGKGLEWVANIKQDGSEKYYVDSVKGRFTISRDNAKNSLYLQMNSLRAEDTAVYYCARDSNWGVFDYWGQGTLVTVSS
VL: QAVLTQPASLSASPGASASLTCTLRSGINVGTYRIYWYQQKPGSPPQYLLRYKSDSDKQQGSGVPSRFSGSKDASANAGILLISGLQSEDEADYYCMIWHSSAWVFGGGTKLTVL
binding [1]: binds

B5: clonotype192 (Table 6, anti-CD131) (antibody, V domains shown)
VH: EVQLVESGGGLVQPGGSLRLSCAASGFTFSSYAMNWVRQAPGKGLEWVSIINDSGYSTYYADSVKGRFTISRDNSKNTLYLQMNSLRAEDTALYYCAKEDNWNYGWFDPWGQGTLVTVSS
VL: QSALTQPASVSGSPGQSITISCTGTSSDVGGYNYVSWYQQHPGKAPKVIIYEVIIRPSGVSPRFSGSKSGKMASLTISGLQAEDEADYYCSSYTSSSTWVFGGGTKLTVL
binding [2]: binds

B6: clonotype193 (Table 6, anti-CD131) (antibody, V domains shown)
VH: EVQLVESGGGLVQPGGSLRLSCAASGFTFSSYDMHWVRQATGKGLEWVSAIGTAGDTYYPGSVKGRFTISRENAKNSLYLQMNSLRAGDTAVYYCAREETGTTSWYFDLWGRGTLVTVSS
VL: QSALTQPASVSGSPGQSITISCTGTSSDVGGYNYVSWYQQHPGKAPKLMIYEVSNRPSGVSNRFSGSKSGNTASLTISGLQAEDEADYYCSSYTSSSTLYVFGTGTKVTVL
binding [2]: binds

B7: clonotype194 (Table 6, anti-CD131) (antibody, V domains shown)
VH: EVQLVESGGGLVQPGGSLRLSCAASGFTFSSYSMNWVRQAPGKGLEWVSYISSSSSTIYYADSVKGRFTISRDNAKNSLYLQMNSLRDEDTAVYYCARGYSYGYWYFDLWGRGTLVTVSS
VL: B6 VL with L99P
binding [2]: binds

B8: clonotype198 (Table 6, anti-CD131) (antibody, V domains shown)
VH: QVQLVESGGGAVQPGRSLRLSCVASGFTFSNYDMHWVRQAPGKGLEWVAVIWSDGSNKYYSDSVKGRFTISRDNSKNTLYLQMTSLSAEDSALSYCVRAARYSGTYIFDYWGQGTLVTVSS
VL: SYVLTQSPSMSVAPGKTARITCGGNNIGSKSVHWYQQRPGQAPVLVIYYDSDRPSGIPERFSGSNSGNTATLTISRVEAGDEAVYYCQVWDSSSYHYVFGTGTKVAVL
binding [2]: binds

B9: clonotype201 (Table 6, anti-CD131) (antibody, V domains shown)
VH: EVQLVESGGGLVQPGGSLRLSCAASGFTFSSYWMSWVRQAPGKGLEWVANIKQDGSEKYYVDSVKGRFTISRDNAKNSLYLQMNSLRAEDTAVYYCAREYNWNYEDAFDIWGQGTMVTVSS
VL: QTVVTQEPSLTVSPGGTVTLTCASSTGAVTSGYYPNWFQQKPGQAPRALIYSTSNKHSWTPARFSGSLLGGKAALTLSGVQPEDEAEYYCLLYYGGAQVFGGGTKLTVL
binding [2]: binds

B10: clonotype202 (Table 6, anti-CD131) (antibody, V domains shown)
VH: QITLKESGPTLVKPTQTLTLTCTFSGFSLSTSGVGVGWIRQPPGKALEWLALIYWNDDKRYSPSLKSRLTITKDTSKNQVVLTMTNMDPVDTATYYCAHRRGSYSNWFDPWGQGTLVTVSS
VL: B1 VL with L99W
binding [2]: binds

B11: clonotype205 (Table 6, anti-CD131) (antibody, V domains shown)
VH: QVQLVQSGAEVRKPVASVKVSCKASGYTFTDHSIHWVRQAPGQGLEWMGSINPNSGGTNYAQKFQGRVTMTWDTYNSTAFMELSRLRSDDTAVYYCARSDGGSHYVFFDDWGQGTLVTVSS
VL: QSVLTQPPSVSEAPRQRVTISCSGSISNIGNNAVSWYQQVPGKAPKLLIYYDDLLPSGVSDRFSGSRSVTSASLAISGLQSEDDADYYCTAWDDRLNGPVFGGGTKLTVL
binding [2]: binds

B12: clonotype206 (Table 6, anti-CD131) (antibody, V domains shown)
VH: EVQLVESGGGLVQPGRSLRLSCAASGFTFDDYAMHWVRQAPGKGLEWVSGISWNSGSIGYADSVKGRFTISRDNAKNSLYLQMNSLRAEDTALYYCAKDIAYSSSGHFDYWGQGTLVTVSS
VL: B1 VL with A8P, V10A, I18V, D52E, S61P, N62D, I77V, C91S, S97N, T98N
binding [2]: binds

B13: clonotype207 (Table 6, anti-CD131) (antibody, V domains shown)
VH: QVQLQESGPGLVKPSGTLSLTCVVSGGSITSSNWWSWVRQPPGKGLEWIGEIYHSGNTNYNPSLKSRVTISVDKSKNQFSLRLSSVTAADTAVYYCARAPLTGTTNWFDPWGQGTLVTVSS
VL: B3 VL with T23S, A45G, L48V, S54R, A76V, Y89S, D99G, V100W
binding [2]: binds

B14: clonotype211 (Table 6, anti-CD131) (antibody, V domains shown)
VH: EVQLVESGGGLVKPGGSLRLSCAASGFTFSSYSMNWVRQAPGKGLEWVSSISSSSSYIYYADSVKGRFTISRDNAKNSLYLQMNSLRAEDTAVYYCAREDGYSSGWNYFDYWGQGTLVTVSS
VL: SSELTQDPAVSVALGQTVRITCQGDSLRSYYASWYQQKPGQAPVLVIYGKNNRPSGIPDRFSGSSSGNTASLTITGAQAEDEADYYCNSRDSSGNHWVFGGGTKLTVL
binding [2]: binds

B15: clonotype213 (Table 6, anti-CD131) (antibody, V domains shown)
VH: QVQLVQSGSELKKPGASVKVSCKASGYTVTRHALNWVRQAPGQGLEWMGWINTNTGTPTYAQGFIGRFVFTLDTSVSTAYLQINSLKAEDTAVYYCARDQTPSDHYYYMDVWGKGTTVTVSS
VL: B14 VL with W97Y, G101T, L105V
binding [2]: binds

B16: clonotype214 (Table 6, anti-CD131) (antibody, V domains shown)
VH: LAHLVQSGAEVKRPGASVKVSCKAFGYAFRGQHIHWVRQAPGQGLEWMGWIRPNSGDTNYSQKFQGRVTMTRDTSITTAYMELTRLRSDDSAVYYCARDRGITMRLDNMDVWGKGTMVTVSS
VL: B14 VL with W97L
binding [2]: binds

B17: clonotype215 (Table 6, anti-CD131) (antibody, V domains shown)
VH: EVQLVESGGTLVQPGGSLTLSCAASGFTFSDSAMHWVRQASGKGLEWVGRIRGKPNTYATAYAASVKGRFTISKDDSKNTAFLQMNSLKTEDRAVYYCTRRYNWNDVGFDYWGQGTLVTVSS
VL: B1 VL with G31A, L48F, S97N, L99Y, G103T, K106R, L107V
binding [2]: binds

B18: clonotype220 (Table 6, anti-CD131) (antibody, V domains shown)
VH: EVQLVESGGGLVQPGRSLRLSCAASGFTFDDYAMHWVRQAPGKGLEWVSGISRNSGSVGYADSVRGRFTISRDNAKNSLYLQMNSLRAEDTALYYCAKGGYDFWSGYYPFDPWGQGTLVTVSS
VL: SYELTQPLSVSVALGQTARITCGENNIVNKNVHWYQQKPGQAPVLVIYRDGNRPSGIPERFSGSNSGNTATLTISRAQAGDEADYYCQVWDNNTPWVFGGGTKLTVL
binding [2]: binds

B19: clonotype226 (Table 6, anti-CD131) (antibody, V domains shown)
VH: QVQLVQSGSELKKPGASVMVSCKASGYTFTRNGINWLRQAPGQGLEWMGWIDTHTGNPTYVQGFTGRFVFSLDTSVNTAYLQISSLRAEDTAVYYCAKDRTGYYHYYYFMDVWGKGTAVTVSS
VL: QSVLTQPPSASGAPGQRVTMSCSGSSSNIERTAVNWYSHLPGAAPKLLIYSNDQRPLGVPDRFAGSKSGSSASLAISGLQSEDEAAYFCAAWDDSLNGWLFGGGTKLTVL
binding [2]: binds

B20: clonotype228 (Table 6, anti-CD131) (antibody, V domains shown)
VH: QVQLVQSGTEMKKPGASVKVSCKASGYTFTTYGISWVRQAPGQGLEWMGWISAYNGNTNYAQKLQARVTMTTDTSTNTAYMELRSLRSDDTAVYYCARSGYNWKYDYYYMDVWGKGTTVTVSS
VL: QSVLTQPPSVSGAPGQRVTISCTGNSSNIGADYDVQWYQQFPGTAPKLLIYANIIRPSGVPDRFSGSKSGTSASLAITGLQAEDEADYYCQSYDSSLSGSLVFGGGTKLTVL
binding [2]: binds

B21: clonotype248 (Table 6, anti-CD131) (antibody, V domains shown)
VH: QVQLQQSGPGLVKPSQTLSLTCAISGDSVSSNSAAWNWIRQSPSRGLEWLGRTYYRSKWYNDYAVSVKSRITINPDTSKNQFSLQLNSVTPEDTAVYYCAREEIVGATTAFDIWGQGTMVTVSS
VL: B8 VL with S7P, M10V, R38K, V84D, Y95D, Y97W, T101G, V105L, A106T
binding [2]: binds

B22: clonotype251 (Table 6, anti-CD131) (antibody, V domains shown)
VH: QVQLQQWGAGLLKPSETLSLTCAVYGGSFSGHYWNWIRQPPGKGLEWIGEINHSGFTNYNPSLKSRVTISVDTPKNQFSLNLSSVTAADTAVYYCAREGLTGHVFDIWGQGTMVTVSS
VL: B1 VL with G31V, G43T, D52E, K55N, C91S, A94T, G95S, S97I, L99W
binding [2]: binds

B23: clonotype252 (Table 6, anti-CD131) (antibody, V domains shown)
VH: QVQVQQSGPGLVKPSQTLSLTCAISGDSVSSNSAAWNWIRQSPSRGLEWLGRTYYRSKWYNDFAVSVKSRITINPDTSKNQFSLQLNSVTPEDTAVYYCARGGGSGSYDWFDPWGQGTLVTVSS
VL: B1 VL with D52E, K55N, C91S, A94T, G95S, L99W
binding [2]: binds
